Assay results published in PubChem BioAssay AID504467 (National Center for Advancing Translational Sciences (NCATS), 2011).
Hit rate of the full screen: of about 330,000 compounds, about 7,700 (2.3%) were called active. Inconclusive means that the source gave no clear call. Such entries were picked first, then a sample of the others. The call rests on the fitted dose curve; in most records, active means well fitted inhibition curve with a large enough effect; inconclusive means small, poorly fitted or top-dose-only effect, or effect the other way; inactive means flat fitted curve, though single readings scatter. Potencies of inconclusive entries are doubtful fits and often do not repeat.

Test: qHTS screen for small molecules that inhibit ELG1-dependent DNA repair in human embryonic kidney (HEK293T) cells expressing luciferase-tagged ELG1; further: nearly all actives have a fitted effect of over 55% in size
Conditions: HEK293T ELG1-luciferase reporter, luminescence, 16 h, DNA damage induced by 5-fluorouridine; series mostly up to 46.1 µM
Method in brief: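 HEK293T cells expressing luciferase-tagged ELG1 (2,000/well) received 5-Fluorouridine plus compound or DMSO for 16 hr at 37 °C. Luciferase was read by ONE-Glo luminescence after 30 min at room temperature.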
Potency means the concentration at half of the fitted maximal effect.

SMILES	Potency
O=[N+]([O-])c1ccc(/C=N/Nc2ccnc3cc(Cl)ccc23)o1	inactive
Cc1ccc(S(=O)(=O)N2CCN(Cc3nc4sc5c(c4c(=O)[nH]3)CCCC5)CC2)cc1	inconclusive: 29.1 µM [inhibitor, single point]
Cc1ccc(NC(=O)CSc2n[nH]c(-c3ccco3)n2)cc1	inconclusive: 16.4 µM [activator, partial curve]
COc1ccccc1NCc1nnc(-c2ccccc2)o1	inactive
Cc1ccc(-c2nc3ccc(Cl)cc3n2OC(C)C(=O)O)cc1 (stereo not given)	inconclusive: 1.16 µM [activator, full curve, poor fit]
Cc1nn(CC(=O)NNC(=O)c2ccccc2F)c([N+](=O)[O-])c1Br	inactive
CCc1nccn1CCC(=O)N1CCCC(N2CCN(c3cccc(Cl)c3)CC2)C1 (stereo not given)	inconclusive: 29.1 µM [activator, single point]
C=CCn1c(SCC(=O)c2cccs2)nc2sc(C)c(C)c2c1=O	inconclusive: 29.1 µM [inhibitor, single point]
COc1cc(C(=O)O)ccc1OCC(=O)N1CCOCC1	inactive
CC(=O)NC(C)C(=O)OCC(=O)c1ccc(-c2ccccc2)cc1 (stereo not given)	inconclusive: 16.4 µM [activator, single point]
COC(=O)[C@@]1(Cc2ccccc2)[C@H]2C(=O)N(Cc3ccccc3)C(=O)[C@H]2[C@H]2CN=C(SCc3ccc(Cl)cc3)N21	inconclusive: 14.6 µM [inhibitor, partial curve]
COc1cccc2c(=O)cc(C)n(CC(=O)Nc3cccc(C)c3)c12	inconclusive: 14.6 µM [inhibitor, partial curve]
COc1ccc(Nc2nc(N)c(C(=O)c3ccc(F)cc3)s2)cc1	inconclusive: 1.16 µM [inhibitor, partial curve, poor fit]
Cc1oc(/N=C/c2ccccc2)c(C#N)c1C	inactive
Cc1ccccc1-c1cc(C(=O)O)n(CC2CC(c3cccnc3)=NO2)n1 (stereo not given)	inactive
Cc1ccc(S(=O)(=O)N2CCOCC2)cc1C(=O)OCC(=O)c1ccc(Br)cc1	inconclusive: 8.2 µM [inhibitor, partial curve]
CCc1c(C)sc(NC(=O)C2CC2c2ccccc2)c1C(N)=O (stereo not given)	inconclusive: 29.1 µM [activator, partial curve, poor fit]
O=C(COC(=O)c1ccccc1NC(=O)c1ccco1)Nc1ccc2c(c1)OC(F)(F)O2	inconclusive: 32.6 µM [inhibitor, partial curve, poor fit]
COc1cccc(-c2nnc(SCC(=O)NCc3ccc4c(c3)OCO4)n2Cc2ccco2)c1	inconclusive: 25.9 µM [inhibitor, single point]
CC(/C=N/NC(=O)c1nnn(-c2nonc2N)c1CN1CCCCC1)=C\c1ccccc1	inactive
CSCCC1NC2(C(=O)Nc3c2ccc(Cl)c3C)[C@@H]2C(=O)N(C3CCCC3)C(=O)[C@H]12 (stereo not given in full)	inconclusive: 18.4 µM [inhibitor, single point]
COc1ccccc1N(C)S(=O)(=O)c1ccc(C(=O)OCC(=O)N(C(C)C)C(C)C)cc1	inactive
O=C(NCC1CCCO1)C(c1ccc(F)cc1)N(CC1CCCO1)C(=O)c1ccc(-c2ccccc2)[nH]1 (stereo not given)	inactive
O=C(NC1CCCC1)C1CCN(C(=O)c2cccc(Cl)c2)CC1	inactive

SMILES	Potency
Fc1cnc(Cl)nc1N1CCN(c2ccccc2)CC1	inconclusive: 18.3 µM [inhibitor, single point]
COc1cc(C(=O)NC(=S)NNC(=O)[C@H]2C[C@@H]2c2ccccc2)cc(OC)c1OC	inconclusive: 25.9 µM [inhibitor, partial curve, poor fit]
CSc1ccc(CN(C)C(C)C(=O)NCc2ccccc2)cc1 (stereo not given)	inconclusive: 16.4 µM [inhibitor, partial curve]
O=C(C1=C[C@H](C2CCCCC2)C[C@H](OCCCCO)O1)N1CCN(Cc2ccccc2)CC1	inactive
Cc1nn(C)c(C(=O)Nc2ccc(Br)cc2F)c1Br	inactive
COc1ccc(Oc2c(Cl)cnn(-c3ccc(Cl)c(Cl)c3)c2=O)cc1	inconclusive: 18.4 µM [inhibitor, single point]
COc1ccc(OCCN(C)CC(=O)Nc2c(C)cccc2C)cc1	inactive
N#C/C(=C\c1cccc([N+](=O)[O-])c1)c1nnc2n1CCCCC2	inactive
O=C(COc1ccccc1Cl)NCCc1ccc2c(c1)OCCO2	inconclusive: 18.4 µM [activator, partial curve]
COc1ccc(-c2cc(C(=O)N(C)Cc3nc4ccccc4c(=O)[nH]3)c3ccccc3n2)cc1OC	active: 2.31 µM
CC(=O)c1ccc(NS(=O)(=O)c2ccc(N/C=C/C(=O)c3ccc(F)cc3)cc2)cc1	inconclusive: 23.1 µM [activator, partial curve, poor fit]
Cc1ccnc(NC(=O)CNC(=O)c2ccc(C)s2)c1	inconclusive: 13 µM [activator, single point]
COc1cc(OC)cc(C(=O)NC(=S)Nc2ccc(N3CCCC3)cc2)c1	inactive
COc1ccc(C2Nc3ccccc3C(=O)N2c2ccccc2)cc1Cn1cc([N+](=O)[O-])cn1 (stereo not given)	inconclusive: 29.1 µM [inhibitor, single point]
O=C1NC(c2cccc(Cl)c2)Oc2ccccc21 (stereo not given)	inconclusive: 25.1 µM [activator, partial curve, poor fit]
CCn1nnnc1SCC(=O)N1c2ccccc2NC(=O)CC1C (stereo not given)	inconclusive: 9.2 µM [activator, partial curve, poor fit]
CC1=C(C(=O)OC(C)C)[C@@H](c2ccc(C)o2)NC(=O)N1	inactive
Cc1ccc(Cc2c(C)c(C#N)c3[nH]c4ccccc4n3c2=O)cc1	active: 18.3 µM
COc1ccc(Nc2ncnc3c2oc2ccccc23)cc1	inconclusive: 4.11 µM [activator, partial curve]
C#CCn1cc(C=C2C(=O)c3ccccc3C2=O)c2ccccc21	inconclusive: 23.1 µM [activator, single point]
O=c1ccc2c(o1)/C(=C/C=C(Cl)Cl)CCC2	inconclusive: 14.6 µM [activator, single point]
CCCCN([C@H](CO)C(C)C)S(=O)(=O)c1ccccc1Br	inactive
Cc1cc(C)c(NC(=S)N(CCN(C)C)Cc2cccs2)c(C)c1	inconclusive: 23.1 µM [activator, single point]
Cn1c(=O)c2cc(S(=O)(=O)NCCC(=O)NCCC3=CCCCC3)ccc2n(C)c1=O	inconclusive: 1.46 µM [inhibitor, partial curve, poor fit]

Copied from the listing (5 entries):
SMILES	Potency
CCn1nnnc1SCC(=O)N1c2ccccc2NC(=O)CC1C (stereo not given)	inconclusive: 9.2 µM [activator, partial curve, poor fit]
CC1=C(C(=O)OC(C)C)[C@@H](c2ccc(C)o2)NC(=O)N1	inactive
Cc1ccc(Cc2c(C)c(C#N)c3[nH]c4ccccc4n3c2=O)cc1	active: 18.3 µM
COc1ccc(Nc2ncnc3c2oc2ccccc23)cc1	inconclusive: 4.11 µM [activator, partial curve]
C#CCn1cc(C=C2C(=O)c3ccccc3C2=O)c2ccccc21	inconclusive: 23.1 µM [activator, single point]

More structures follow:

SMILES	Potency
COc1cccc(NC(=O)CSc2nc3ccccc3c(=O)n2CCCC(=O)N2CCCC2)c1	inconclusive: 25.9 µM [inhibitor, partial curve, poor fit]
O=C1C=CC(O)(c2cc(=O)c3c(O)cc(O)cc3o2)C=C1	active: 3.26 µM
O=C(N/N=C/c1ccccn1)c1cc(-c2ccc(Br)cc2)nc2ccccc12	inconclusive: 5.17 µM [inhibitor, single point]
Cc1cc(C(=O)N/N=C/c2ccc(C)s2)n[nH]1	inconclusive: 18.3 µM [activator, partial curve]
O=C(Nc1ccc(-c2csc(Nc3cccc(C(F)(F)F)c3)n2)cc1)c1ccccc1	active: 11.6 µM
Cc1occc1C(=O)NNC(=O)Nc1ccc([N+](=O)[O-])cc1	inactive
COc1ccc(-n2c(SCc3ccc([N+](=O)[O-])cc3)nnc2-c2ccccc2)cc1	inconclusive: 29.1 µM [inhibitor, single point]
Cc1[nH]c(C)c(S(=O)(=O)N2c3ccccc3CC2C)c1C(=O)N1CCCCC1 (stereo not given)	inactive
CCN(CC(=O)NCc1ccc(Cl)cc1)C(=O)C(C)Sc1ccccc1 (stereo not given)	inconclusive: 1.3 µM [inhibitor, partial curve, poor fit]
O=c1c2ccccc2nc2ccc(NCc3ccco3)nn12	inconclusive: 13 µM [activator, partial curve]
Cn1c(-c2ccc(CN3CCCCC3)o2)nc2ccccc21	inconclusive: 20.6 µM [activator, partial curve]
CNc1ccc(Br)cc(C(=O)/C=C/c2ccc3c(c2)OCO3)c1=O	inconclusive: 29.1 µM [inhibitor, single point]
O=C1OCC(c2ccccc2)=C1c1ccccc1	inactive
c1ccc(CSc2nnc(-c3c[nH]c4ccccc34)o2)cc1	inconclusive: 20 µM [activator, single point]
Cc1ccc(N2CC(C(=O)Nc3ccc(N(C)C)cc3)CC2=O)cc1C (stereo not given)	inconclusive: 20.6 µM [inhibitor, single point]
CCc1ccc(S(=O)(=O)N2CCN(C(=O)c3cccnc3)CC2)cc1	inactive
COCc1nnc(NC(=O)c2ccc(Cl)cc2[N+](=O)[O-])s1	inconclusive: 18.4 µM [activator, single point]
Clc1ccc(-n2c(SC/C=C/c3ccccc3)nnc2-c2cccnc2)cc1	inconclusive: 23.1 µM [inhibitor, partial curve]
O=C(NCCS(=O)(=O)N1CCCCC1)c1ccc2c(c1)OCO2	inactive
Nn1c(SCC(=O)Nc2ccccc2Br)nnc1-c1ccco1	inactive
O=C(NC(=S)Nc1ccccc1[N+](=O)[O-])c1ccccc1	inconclusive: 16.4 µM [activator, partial curve]
CC(C)n1c(C(O)c2ccc3c(c2)OCO3)nc2ccccc21 (stereo not given)	inactive
